Results: the supplement of paper PMC8728848
The other results are listed elsewhere or left out.

What was measured:
Experiment in all cases: glycan array binding signal (z-score within array); higher = stronger binding
Details in all cases: glycan notation: IUPAC condensed, linker removed
[1] = target: Neu5Ac(a2-3)Gal(b1-3)GalNAc
Outline: (§1)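 From the Consortium for Functional Glycomics database, 3228 arrays were curated, keeping only those whose protein sequence was available. Binding is given as a within-array Z-score averaged across arrays sharing a protein sequence and across linkers. Negative Z-scores can be read as non-binding.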

[2] = target: Neu5Ac(a2-3)Gal(b1-3)GalNAc(b1-3)Gal(a1-4)Gal(b1-4)Glc
Outline: as §1

[3] = target: Neu5Ac(a2-3)Gal(b1-3)GalNAc(b1-4)Gal(b1-4)Glc
Outline: as §1

[4] = target: Neu5Ac(a2-3)Gal(b1-3)GalNAc(b1-4)[Neu5Ac(a2-3)]Gal(b1-4)Glc
Outline: as §1

[5] = target: Neu5Ac(a2-3)Gal(b1-3)GalNAc(b1-4)[Neu5Ac(a2-8)Neu5Ac(a2-3)]Gal(b1-4)Glc
Outline: as §1

[6] = target: Neu5Ac(a2-3)Gal(b1-3)GalNAc6S
Outline: as §1

[7] = target: Neu5Ac(a2-3)Gal(b1-3)GlcNAc
Outline: as §1

[8] = target: Neu5Ac(a2-3)Gal(b1-3)GlcNAc(b1-2)Man
Outline: as §1

[9] = target: Neu5Ac(a2-3)Gal(b1-3)GlcNAc(b1-2)Man(a1-3)[GlcNAc(b1-4)][Neu5Ac(a2-3)Gal(b1-3)GlcNAc(b1-2)Man(a1-6)]Man(b1-4)GlcNAc(b1-4)GlcNAc
Outline: as §1

[10] = target: Neu5Ac(a2-3)Gal(b1-3)GlcNAc(b1-2)Man(a1-3)[Neu5Ac(a2-3)Gal(b1-3)GlcNAc(b1-2)Man(a1-6)]Man(b1-4)GlcNAc(b1-4)GlcNAc
Outline: as §1

[11] = target: Neu5Ac(a2-3)Gal(b1-3)GlcNAc(b1-2)[Neu5Ac(a2-3)Gal(b1-3)GlcNAc(b1-4)]Man(a1-6)[Neu5Ac(a2-3)Gal(b1-3)GlcNAc(b1-2)Man(a1-3)]Man(b1-4)GlcNAc(b1-4)GlcNAc
Outline: as §1

[12] = target: Neu5Ac(a2-3)Gal(b1-3)GlcNAc(b1-3)Gal(b1-3)GlcNAc
Outline: as §1

[13] = target: Neu5Ac(a2-3)Gal(b1-3)GlcNAc(b1-3)Gal(b1-4)GlcNAc
Outline: as §1

[14] = target: Neu5Ac(a2-3)Gal(b1-3)GlcNAc(b1-3)GalNAc
Outline: as §1

[15] = target: Neu5Ac(a2-3)Gal(b1-3)GlcNAc(b1-6)GalNAc
Outline: as §1

[16] = target: Neu5Ac(a2-3)Gal(b1-3)GlcNAc6S
Outline: as §1

[17] = target: Neu5Ac(a2-3)Gal(b1-3)[Fuc(a1-4)]GlcNAc
Outline: as §1

[18] = target: Neu5Ac(a2-3)Gal(b1-3)[Fuc(a1-4)]GlcNAc(b1-3)Gal(b1-3)[Fuc(a1-4)]GlcNAc
Outline: as §1

[19] = target: Neu5Ac(a2-3)Gal(b1-3)[Fuc(a1-4)]GlcNAc(b1-3)Gal(b1-4)[Fuc(a1-3)]GlcNAc
Outline: as §1

[20] = target: Neu5Ac(a2-3)Gal(b1-3)[GlcNAc(b1-6)]GalNAc
Outline: as §1

[21] = target: Neu5Ac(a2-3)Gal(b1-3)[Neu5Ac(a2-6)]GalNAc
Outline: as §1

[22] = target: Neu5Ac(a2-3)Gal(b1-3)[Neu5Ac(a2-6)]GlcNAc(b1-3)[Fuc(a1-3)[Gal(b1-4)]GlcNAc(b1-6)]Gal(b1-4)Glc
Outline: as §1

[23] = target: Neu5Ac(a2-3)Gal(b1-3)]Neu5Ac(a2-3)Gal(b1-4)]GlcNAc
Outline: as §1

Neu5Ac(a2-3)Gal(b1-4)Glc = target: Neu5Ac(a2-3)Gal(b1-4)Glc
Outline: as §1

[24] = target: Neu5Ac(a2-3)Gal(b1-4)GlcNAc
Outline: as §1

[25] = target: Neu5Ac(a2-3)Gal(b1-4)GlcNAc(b1-2)Man
Outline: as §1

[26] = target: Neu5Ac(a2-3)Gal(b1-4)GlcNAc(b1-2)Man(a1-3)[GlcNAc(b1-4)][Neu5Ac(a2-3)Gal(b1-4)GlcNAc(b1-2)Man(a1-6)]Man(b1-4)GlcNAc(b1-4)GlcNAc
Outline: as §1

[27] = target: Neu5Ac(a2-3)Gal(b1-4)GlcNAc(b1-2)Man(a1-3)[Neu5Ac(a2-3)Gal(b1-4)GlcNAc(b1-2)Man(a1-6)]Man(b1-4)GlcNAc(b1-4)GlcNAc
Outline: as §1

[28] = target: Neu5Ac(a2-3)Gal(b1-4)GlcNAc(b1-2)Man(a1-3)[Neu5Ac(a2-3)Gal(b1-4)GlcNAc(b1-2)Man(a1-6)]Man(b1-4)GlcNAc(b1-4)[Fuc(a1-6)]GlcNAc
Outline: as §1

[29] = target: Neu5Ac(a2-3)Gal(b1-4)GlcNAc(b1-2)Man(a1-3)[Neu5Ac(a2-6)Gal(b1-4)GlcNAc(b1-2)Man(a1-6)]Man(b1-4)GlcNAc(b1-4)GlcNAc
Outline: as §1

[30] = target: Neu5Ac(a2-3)Gal(b1-4)GlcNAc(b1-2)[Neu5Ac(a2-3)Gal(b1-4)GlcNAc(b1-4)]Man(a1-3)[GlcNAc(b1-4)][Neu5Ac(a2-3)Gal(b1-4)GlcNAc(b1-2)[Neu5Ac(a2-3)Gal(b1-4)GlcNAc(b1-6)]Man(a1-6)]Man(b1-4)GlcNAc(b1-4)GlcNAc
Outline: as §1

[31] = target: Neu5Ac(a2-3)Gal(b1-4)GlcNAc(b1-2)[Neu5Ac(a2-3)Gal(b1-4)GlcNAc(b1-4)]Man(a1-3)[GlcNAc(b1-4)][Neu5Ac(a2-3)Gal(b1-4)GlcNAc(b1-4)Man(a1-6)]Man(b1-4)GlcNAc(b1-4)GlcNAc
Outline: as §1

[32] = target: Neu5Ac(a2-3)Gal(b1-4)GlcNAc(b1-2)[Neu5Ac(a2-3)Gal(b1-4)GlcNAc(b1-6)]Man(a1-6)[Neu5Ac(a2-3)Gal(b1-4)GlcNAc(b1-2)Man(a1-3)][GlcNAc(b1-4)]Man(b1-4)GlcNAc(b1-4)GlcNAc
Outline: as §1

[33] = target: Neu5Ac(a2-3)Gal(b1-4)GlcNAc(b1-3)Gal
Outline: as §1

[34] = target: Neu5Ac(a2-3)Gal(b1-4)GlcNAc(b1-3)Gal(b1-3)GlcNAc
Outline: as §1

[35] = target: Neu5Ac(a2-3)Gal(b1-4)GlcNAc(b1-3)Gal(b1-4)GlcNAc
Outline: as §1

[36] = target: Neu5Ac(a2-3)Gal(b1-4)GlcNAc(b1-3)Gal(b1-4)GlcNAc(b1-2)Man(a1-3)[Neu5Ac(a2-3)Gal(b1-4)GlcNAc(b1-3)Gal(b1-4)GlcNAc(b1-2)Man(a1-6)]Man(b1-4)GlcNAc(b1-4)GlcNAc
Outline: as §1

[37] = target: Neu5Ac(a2-3)Gal(b1-4)GlcNAc(b1-3)Gal(b1-4)GlcNAc(b1-3)Gal(b1-4)GlcNAc
Outline: as §1

[38] = target: Neu5Ac(a2-3)Gal(b1-4)GlcNAc(b1-3)Gal(b1-4)GlcNAc(b1-3)Gal(b1-4)GlcNAc(b1-2)Man(a1-3)[Neu5Ac(a2-3)Gal(b1-4)GlcNAc(b1-3)Gal(b1-4)GlcNAc(b1-3)Gal(b1-4)GlcNAc(b1-2)Man(a1-6)]GalNAc
Outline: as §1

[39] = target: Neu5Ac(a2-3)Gal(b1-4)GlcNAc(b1-3)Gal(b1-4)GlcNAc(b1-3)GalNAc
Outline: as §1

[40] = target: Neu5Ac(a2-3)Gal(b1-4)GlcNAc(b1-3)Gal(b1-4)GlcNAc(b1-3)[Neu5Ac(a2-3)Gal(b1-4)GlcNAc(b1-3)Gal(b1-4)GlcNAc(b1-6)]GalNAc
Outline: as §1

[41] = target: Neu5Ac(a2-3)Gal(b1-4)GlcNAc(b1-3)Gal(b1-4)GlcNAc(b1-6)[Gal(b1-3)]GalNAc
Outline: as §1

[42] = target: Neu5Ac(a2-3)Gal(b1-4)GlcNAc(b1-3)Gal(b1-4)[Fuc(a1-3)]GlcNAc
Outline: as §1

[43] = target: Neu5Ac(a2-3)Gal(b1-4)GlcNAc(b1-3)GalNAc
Outline: as §1

[44] = target: Neu5Ac(a2-3)Gal(b1-4)GlcNAc(b1-3)[Neu5Ac(a2-3)Gal(b1-4)GlcNAc(b1-6)]GalNAc
Outline: as §1

B1: Mermaid1 (Stilbonema majum) (protein)
chain: MGSSHHHHHHSSGLVPRGSHMAASGWLRSPQGTVVKLYRRSLSWSKADEFCKDVDGRLVVDRTADMHLFLIKNVLKEKKSRVWVGLRRTAPHSRTWIWSDGTRQNEDDLDANLWLRDEPNDAAGEEECALFMYSPWEKAWGLNDYLCRGGCRSYQFICEKWIR
[1]
  glycan array binding signal (z-score): -0.371
[2]
  glycan array binding signal (z-score): -0.006
[3]
  glycan array binding signal (z-score): -0.228
[4]
  glycan array binding signal (z-score): 0.143
[5]
  glycan array binding signal (z-score): -0.558
[6]
  glycan array binding signal (z-score): 0.152
[7]
  glycan array binding signal (z-score): -0.723
[8]
  glycan array binding signal (z-score): -0.781
[9]
  glycan array binding signal (z-score): -0.056
[10]
  glycan array binding signal (z-score): 2.31
[11]
  glycan array binding signal (z-score): -0.365
[12]
  glycan array binding signal (z-score): -0.295
[13]
  glycan array binding signal (z-score): -0.522
[14]
  glycan array binding signal (z-score): -0.649
[15]
  glycan array binding signal (z-score): -0.543
[16]
  glycan array binding signal (z-score): 0.494
[17]
  glycan array binding signal (z-score): -0.82
[18]
  glycan array binding signal (z-score): 0.72
[19]
  glycan array binding signal (z-score): 2.98
[20]
  glycan array binding signal (z-score): -0.799
[21]
  glycan array binding signal (z-score): -0.386
[22]
  glycan array binding signal (z-score): -0.57
[23]
  glycan array binding signal (z-score): 0.122
Neu5Ac(a2-3)Gal(b1-4)Glc
  glycan array binding signal (z-score): 0.227
[24]
  glycan array binding signal (z-score): -0.445
[25]
  glycan array binding signal (z-score): -0.018
[26]
  glycan array binding signal (z-score): -0.132
[27]
  glycan array binding signal (z-score): -0.397
[28]
  glycan array binding signal (z-score): -0.492
[29]
  glycan array binding signal (z-score): 0.133
[30]
  glycan array binding signal (z-score): -0.428
[31]
  glycan array binding signal (z-score): -0.247
[32]
  glycan array binding signal (z-score): -0.848
[33]
  glycan array binding signal (z-score): -0.376
[34]
  glycan array binding signal (z-score): -0.917
[35]
  glycan array binding signal (z-score): -0.754
[36]
  glycan array binding signal (z-score): 0.278
[37]
  glycan array binding signal (z-score): -0.85
[38]
  glycan array binding signal (z-score): 1.49
[39]
  glycan array binding signal (z-score): -0.766
[40]
  glycan array binding signal (z-score): 0.32
[41]
  glycan array binding signal (z-score): -0.542
[42]
  glycan array binding signal (z-score): 0.304
[43]
  glycan array binding signal (z-score): -0.493
[44]
  glycan array binding signal (z-score): -0.574
